Assay results as given in patent US12037302B1, “Compound for treatment of bacterial infections of different etiology in humans” (priority 2021, dated 2024).

Experiment: Solubility of the product
Format: physicochemical
Method: On chromatographie separation, two separate peaks of Lidocaine in cationic form and 2,4-dinitrocarvacrol in anionic form can be seen. Methanol is used as a mobile phase and the peak of Lidocaine becomes available at about 24 min and the peak of 2,4-dinitrocarvacrol at about 26 min. Other possible peaks, if present, could be mononitration products and unreacted Carvacrol, which means that the reaction was not completed. Both mononitrocarvacrol and Carvacrol are considered non-harmless impurities.
The novel product's solubility in water is improved by adding nitro groups to its aromatic ring. It can be visually tracked by examining the color of the solution. The nitro group is a well-known chromophore, which means that it changes the ab-sorption of electromagnetic radiation from UV to visible spectra. The nitro groups are also electron-withdrawing by inductive and resonance effects, which improves the acidity of phenolic protons. Improved acidity means that more acidic protons can more easily react with bases.

CCN(CC)CC(=O)Nc1c(C)cccc1C.Cc1cc([N+](=O)[O-])c(C(C)C)c([N+](=O)[O-])c1O [Novel Compound, 2,4-dinitro-5-isopropyl-2-methylphenoxy-N-(2,6-dimethylphenylium)-N2,N2-diethylglycinamide]
solubility in PSB (PSB (phosphate-buffered saline, isotonic solution, pH of 7.4), in comparison to Carvacrol salt with Lidocaine): improved
solubility in alkaline solutions (alkaline solutions, compared with water): even more soluble
solubility in water (water): slightly soluble
solubility in water, effect of nitro groups (water, by adding nitro groups to the aromatic ring): improved
